Taken from: PubChem BioAssay AID652243 (Drosophila RNAi Screening Center, 2013)

Screen: 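Fly regulators of androgen-dependent reporter output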 (primary screen)
Cell system: Drosophila S2R+ cells
Reagents: long dsRNA against Drosophila genes
Time to read-out: 72 h (48 h, then 24 h hormone)
Conditions: synthetic androgen R1881 at 10 nM for 24 h
Read-out: 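Firefly light from an androgen-responsive reporter and Renilla control light per well, raw and unnormalised, for each of two replicates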
Reading the numbers: firefly reporter light: higher = more light from androgen-responsive reporter; Renilla control light: higher = more constitutive control signal (cell number, transfection)
Rule for the call: 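Across duplicate plates, a knock-down whose log firefly/Renilla ratio shifted a set fold down or up from the GFP/LacZ control mean was a hit; the downward cut appears as both 1.5 and 3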
Calls: active = hit: reporter lowered or raised; inactive = no hit
The screen tested about 24,000 reagents; this is an unselected part of those that have a named target and a result. In the full data, 246 (1%) are marked active. 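Plates not normalised; calls are printed but the firefly/Renilla ratio behind them is not deposited; fold cut for lowering reported inconsistently.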 Raw values vary from plate to plate and are shown uncorrected. Names joined by + are all predicted targets of the reagent. Not stated in the record: the amount of reagent.

gene | PubChem SID | firefly reporter light, replicate 1 | firefly reporter light, replicate 2 | Renilla control light, replicate 1 | Renilla control light, replicate 2 | activity call
CG9782 | SID104198937 | 5.77e5 | 4.25e5 | 3.86e5 | 2.85e5 | inactive
CG9782 | SID104200001 | 3.91e5 | 3.79e5 | 2.88e6 | 3.11e6 | inactive
CG9782 | SID104203661 | 6.33e5 | 6.59e5 | 8.75e5 | 8.19e5 | inactive
CG31743 + CG34313 | SID104182573 | 6.97e5 | 6.63e5 | 2.04e6 | 2.49e6 | inactive
CG31743 + CG34313 | SID104182574 | 1.54e5 | 1.60e5 | 1.35e6 | 1.55e6 | inactive
CG10444 | SID104185782 | 1.15e6 | 1.03e6 | 1.46e6 | 1.27e6 | inactive
NT1 (Neurotrophin 1) | SID104188322 | 1.04e5 | 1.19e5 | 1.31e6 | 1.56e6 | inactive
NT1 (Neurotrophin 1) | SID104202254 | 8.59e5 | 1.09e6 | 1.68e6 | 1.90e6 | inactive
Kaz (Katazuke) | SID104194429 | 2.53e5 | 2.44e5 | 3.10e6 | 3.05e6 | inactive
IP3K1 (Inositol 1,4,5-triphosphate kinase 1) | SID104182526 | 7.19e5 | 1.05e6 | 2.16e6 | 2.17e6 | inactive
CG7016 | SID104195966 | 1.90e5 | 2.06e5 | 1.69e6 | 2.48e6 | inactive
Bka (Bekka) | SID104182549 | 1.86e5 | 1.82e5 | 1.04e6 | 1.52e6 | inactive
LManI (Lysosomal alpha-mannosidase I) | SID104182630 | 2.19e5 | 2.23e5 | 1.80e6 | 1.70e6 | inactive
LManI (Lysosomal alpha-mannosidase I) | SID104203377 | 6.58e5 | 7.49e5 | 5.00e5 | 7.91e5 | inactive
LManI (Lysosomal alpha-mannosidase I) | SID104216591 | 5.48e5 | 6.67e5 | 2.08e6 | 2.08e6 | inactive
CG34140 + Mkp | SID104204544 | 5.05e5 | 6.08e5 | 4.90e5 | 4.39e5 | inactive
Ten-m (Tenascin major) | SID104191456 | 1.24e5 | 1.48e5 | 1.50e6 | 1.73e6 | inactive
Ten-m (Tenascin major) | SID104191674 | 2216 | 1427 | – | – | inactive
Epg5 (ectopic P-granules autophagy protein 5) | SID104194570 | 2.18e5 | 2.20e5 | 3.45e6 | 3.08e6 | inactive
mTerf3 (mitochondrial transcription termination factor 3) | SID104191551 | 66270 | 68595 | 5.46e5 | 4.62e5 | inactive

The list goes on (5 carried over from the part before).
gene | PubChem SID | firefly reporter light, replicate 1 | firefly reporter light, replicate 2 | Renilla control light, replicate 1 | Renilla control light, replicate 2 | activity call
CG34140 + Mkp | SID104204544 | 5.05e5 | 6.08e5 | 4.90e5 | 4.39e5 | inactive
Ten-m (Tenascin major) | SID104191456 | 1.24e5 | 1.48e5 | 1.50e6 | 1.73e6 | inactive
Ten-m (Tenascin major) | SID104191674 | 2216 | 1427 | – | – | inactive
Epg5 (ectopic P-granules autophagy protein 5) | SID104194570 | 2.18e5 | 2.20e5 | 3.45e6 | 3.08e6 | inactive
mTerf3 (mitochondrial transcription termination factor 3) | SID104191551 | 66270 | 68595 | 5.46e5 | 4.62e5 | inactive
CG31668 | SID104202006 | 7.34e5 | 5.02e5 | 1.79e6 | 1.71e6 | inactive
mAcon1 (Mitochondrial aconitase 1) | SID104181645 | 93189 | 1.24e5 | 1.50e6 | 1.46e6 | inactive
mAcon1 (Mitochondrial aconitase 1) | SID104203450 | 1.60e6 | 1.13e6 | 1.32e6 | 1.00e6 | inactive
mAcon1 (Mitochondrial aconitase 1) | SID104216534 | 1.04e6 | 7.59e5 | 2.08e6 | 1.90e6 | inactive
axo (axotactin) | SID104187908 | 4.78e5 | 5.67e5 | 2.54e6 | 4.14e6 | inactive
axo (axotactin) | SID104188116 | 1.10e5 | 94985 | 1.51e6 | 1.62e6 | inactive
axo (axotactin) | SID104201116 | 4.40e5 | 4.48e5 | 1.93e6 | 1.81e6 | inactive
axo (axotactin) | SID104202444 | 5.50e5 | 6.65e5 | 1.14e6 | 1.51e6 | inactive
axo (axotactin) | SID104207096 | 3.16e5 | 5.42e5 | 1.19e6 | 1.80e6 | inactive
CG9689 | SID104198232 | 1.04e5 | 1.02e5 | 7.49e5 | 8.48e5 | inactive
CG9689 | SID104206849 | 3.56e5 | 5.24e5 | 9.36e5 | 1.49e6 | inactive
aspr (asperous) | SID104200481 | 2.67e5 | 2.11e5 | 6.24e5 | 5.34e5 | inactive
aspr (asperous) | SID104200482 | 1.32e5 | 1.16e5 | 4.40e5 | 4.11e5 | inactive
CG7227 | SID104182824 | 5.86e5 | 9.15e5 | 1.09e6 | 1.18e6 | inactive
Synj (Synaptojanin) | SID104184318 | 8.27e5 | 6.83e5 | 1.56e6 | 9.70e5 | inactive
Synj (Synaptojanin) | SID104214450 | – | – | – | – | inactive
Synj (Synaptojanin) | SID104214451 | – | – | – | – | inactive
Ufm1 + mute | SID104205342 | 4.07e5 | 3.10e5 | 3.61e5 | 2.68e5 | inactive
CG15914 | SID104199531 | 5.16e5 | 4.78e5 | 4.44e6 | 3.42e6 | inactive
KP78b + KP78a | SID104202695 | 5.26e5 | 6.92e5 | 1.33e6 | 1.41e6 | inactive
KP78b + KP78a | SID104202698 | 5.83e5 | 6.51e5 | 1.24e6 | 1.77e6 | inactive
KP78b + KP78a | SID104207809 | 5.64e5 | 5.02e5 | 1.13e6 | 1.03e6 | inactive
KP78b + KP78a | SID104214349 | – | – | – | – | inactive
CG31051 | SID104194826 | 58622 | 68924 | 4.15e5 | 3.29e5 | inactive
CG8701 | SID104187029 | 9.41e5 | 9.80e5 | 1.90e6 | 2.00e6 | inactive
CG12278 | SID104194286 | 1.56e5 | 2.52e5 | 1.39e6 | 1.95e6 | inactive
Neu2 (Neuroectoderm-expressed 2) | SID104191611 | 2.15e5 | 2.02e5 | 2.94e6 | 3.31e6 | inactive
Neu2 (Neuroectoderm-expressed 2) | SID104205339 | 3.31e5 | 2.70e5 | 5.97e5 | 5.19e5 | inactive
Sln (Silnoon) | SID104186925 | 2.15e5 | 1.95e5 | 2.06e6 | 1.74e6 | active
Sln (Silnoon) | SID104203059 | 7.55e5 | 8.81e5 | 1.16e6 | 1.24e6 | inactive
spz5 (spatzle 5) | SID104188437 | 8.27e5 | 8.78e5 | 1.69e6 | 1.77e6 | inactive
Cpr35B (Cuticular protein 35B) | SID104181741 | 4.77e5 | 3.18e5 | 3.25e6 | 2.33e6 | inactive
Cpr35B (Cuticular protein 35B) | SID104202156 | 4.21e5 | 6.96e5 | 5.63e5 | 9.57e5 | inactive
Cpr35B (Cuticular protein 35B) | SID104204975 | 3.19e5 | 2.49e5 | 6.16e5 | 3.25e5 | inactive
Rdh (Red herring) | SID104187855 | 7919 | 12750 | 55879 | 79059 | inactive
TwdlV (TweedleV) | SID104203518 | 1.11e6 | 9.92e5 | 8.56e5 | 1.04e6 | inactive
Pgant7 (Polypeptide N-Acetylgalactosaminyltransferase 7) | SID104199783 | 70391 | 1.15e5 | 4.46e5 | 7.05e5 | inactive
CG9920 | SID104196370 | 1.62e5 | 2.00e5 | 2.65e6 | 2.36e6 | inactive
